Laboratory results: PubChem BioAssay AID540276 (National Center for Advancing Translational Sciences (NCATS), 2011)
Among all 300,000 compounds or so, about 5,400 (1.8%) were called active. Inconclusive means that the source gave no clear call. Such entries were picked first, then a sample of the others. Calls come from the whole dose curve; tested in HEK293 cells. Potencies beside an inconclusive call are fits to weak or partial responses and may not hold up.

Test: qHTS for inhibitors of binding or entry into cells for Marburg Virus
Settings: Marburg virus pseudotyped entry inhibition, cell reporter; activity change, negative = inhibition: at 37.8 µM (top of the series) unless noted
% is set by controls: 0 for no effect and ±100 for the full control effect; potency is the fitted concentration of half-maximal effect.

SMILES	Potency	activity change, negative = inhibition
CCS(=O)(=O)N1CCN(C(=O)CCC2CCCC2)CC1	inconclusive: 2.82 µM [activator, partial curve]	
C/C(=C\C(=O)c1ccc(C)o1)Nc1ccc2c(c1)OCO2	inactive	
CCCSc1ccc2nc(-c3ccccc3)cn2c1	inconclusive: 4.47 µM [inhibitor, full curve, poor fit]	
COc1cc(/C=C(\C#N)c2nn(CCO)c(N)c2C#N)cc(OC)c1OC	inconclusive: 22.4 µM [inhibitor, single point]	
CCn1c(Cc2ccc(OC)cc2)nnc1SCC(=O)N1CCN(c2ccccc2)CC1	inconclusive: 9.2 µM [inhibitor, partial curve, poor fit]	
CCc1ccccc1NC(=S)N=Nc1c(O)n(C)c2ccc(S(=O)(=O)N3CCOCC3)cc12	inconclusive: 2.24 µM [inhibitor, partial curve, poor fit]	
Cc1c(C(=O)NCCC2=CCCCC2)oc2ccc(S(=O)(=O)N3CCOCC3)cc12	inconclusive: 25.9 µM [inhibitor, single point]	
O=C1NC(=O)C(=Cc2ccc(Sc3ccccc3)o2)C(=O)N1	inactive	
COc1ccc(S(=O)(=O)N/N=C(/C)c2ccco2)cc1	inconclusive: 3.16 µM [activator, single point]	
COc1ccc(-c2nc3cc(C)ccn3c2NCC2CCCO2)cc1OC (stereo not given)	inactive	
Cc1cccc(NC(=O)CN2C(=O)C(c3ccc(F)cc3)=NC23CCCCCC3)c1C	inconclusive: 35.5 µM [inhibitor, single point]	
COc1cccc(OCC(=O)NNC(=O)Cc2cccs2)c1	inconclusive: 35.5 µM [inhibitor, single point]	
Nn1c(SCc2ccccn2)nncc1=O	inconclusive: 17.8 µM [inhibitor, single point]	
Cc1c(NS(=O)(=O)c2ccc(C(C)(C)C)cc2)c(=O)n(-c2ccccc2)n1C	inactive	
Clc1ccccc1-c1nc2ccccc2[nH]1	inconclusive: 2.51 µM [activator, full curve, poor fit]	
O=C(C1CC1)N(Cc1ccco1)c1nc(-c2ccccc2)cs1	inactive	
C=CCc1c(C)nc(C)nc1N/N=C/c1ccccc1O	inconclusive: 35.5 µM [inhibitor, single point]	
C[C@@H]1NC(=O)N(c2ccc(F)cc2)C1=O	inconclusive: 6.31 µM [inhibitor, single point]	
Cc1ccc(OCc2nnc(SC3CCc4ccccc4C3=O)n2C)cc1 (stereo not given)	inactive	
COc1ccc([N+](=O)[O-])cc1N(CC1CO1)S(=O)(=O)c1ccc(C)cc1 (stereo not given)	inconclusive: 35.5 µM [inhibitor, single point]	
Cc1ccc(C2OCC3(CO)COC(c4ccc(C)cc4)N23)cc1 (stereo not given)	inconclusive: 2.59 µM [inhibitor, partial curve, poor fit]	
C/C(=N\Nc1nc(C(=O)O)cs1)c1ccccc1	inconclusive: 1 µM [activator, full curve, poor fit]	
COc1ccc(OCC(=O)N2CCN(C(=O)c3ccc(OC)c(OC)c3)CC2)cc1	inconclusive: 35.5 µM [activator, single point]	
C=CCc1cccc(/C=N/NC(=O)CN2CCN(Cc3ccccc3)CC2)c1O	inconclusive: 20.6 µM [inhibitor, single point]	

SMILES	Potency	activity change, negative = inhibition
CN1CCN(c2nc3c(c(=O)n(C)c(=O)n3C)n2Cc2cccc3ccccc23)CC1	inactive	
CC(C)c1ccc(NC(=O)C2=NNC(=O)CC2)cc1	inconclusive: 0.794 µM [activator, single point]	
COc1ccccc1C(=O)N1CCCC1(C#N)c1ccccc1 (stereo not given)	inconclusive: 0.224 µM [activator, full curve, poor fit]	
Cc1ccc(S(=O)(=O)NCCC(=O)NC2CCCCCC2)cc1C	inconclusive: 0.794 µM [inhibitor, single point]	
COC(=O)c1[nH]c2ccc(C)cc2c1NC(=O)CN1CCCC(C)(C)C1	inconclusive: 12.6 µM [inhibitor, single point]	
CN(C)/C=C(/C(=O)c1ccccc1Cl)S(C)(=O)=O	inconclusive: 3.55 µM [activator, partial curve, poor fit]	
CCOC(=O)c1cc2nc(OCC)nc(OCC)c2[nH]1	inconclusive: 0.562 µM [activator, full curve, poor fit]	
O=C(O)C1CCCNC1 (stereo not given)		inconclusive: -34.5% [inhibitor]
COc1cc(CN2CCCCCC2)cc(OC)c1	inconclusive: 31.6 µM [inhibitor, single point]	
Cc1ccc2occ(CC(=O)Nc3c(C)cccc3C)c2c1	inconclusive: 3.55 µM [inhibitor, single point]	
CC(=O)c1ccc(NC(=O)c2cc(C)nc3ccccc23)cc1	inactive	
Cc1ccc(O)c(CO)n1	inactive	
COc1ccc(-c2coc3cc4oc(=O)c5ccccc5c4cc23)cc1F	inactive	
c1ccc(-c2cc(-c3ccccc3)ncn2)cc1	inconclusive: 20 µM [activator, single point]	
Fc1ccc(Nc2ncnc3ccccc23)cc1	inconclusive: 0.708 µM [inhibitor, full curve, poor fit]	
C=CCOC(=O)Nc1snnc1C	inconclusive: 7.08 µM [inhibitor, single point]	
Cc1ccnc(NC(=O)C2CCN(S(=O)(=O)c3c(C)c(C)cc(C)c3C)CC2)c1	inconclusive: 28.2 µM [inhibitor, single point]	
N#Cc1c(-c2ccco2)cc(-c2cccnc2)nc1N	inconclusive: 0.517 µM [inhibitor, full curve]	
CC(OC(=O)/C=C/c1ccco1)C(=O)Nc1cccc([N+](=O)[O-])c1 (stereo not given)	inconclusive: 6.31 µM [inhibitor, full curve, poor fit]	
Nc1cccc(-c2cn(-c3cc4cc(C#CC5(O)CCCCC5)ccc4oc3=O)nn2)c1	inactive	
Cc1ccc(OCC(=O)Nc2cccc(S(=O)(=O)N3CCCCC3)c2)c([N+](=O)[O-])n1	inconclusive: 0.355 µM [activator, partial curve, poor fit]	
Clc1ccc(C2=Nn3c(nnc3-c3n[nH]c4c3CCC4)SC2)cc1	inconclusive: 17.8 µM [inhibitor, single point]	
COc1cc(C(N)=O)cc(Br)c1OCc1ccccc1	inactive	
COC(=O)[C@H](Cc1ccccc1)NC(=O)N1CCCCC1C (stereo not given in full)	inactive	

SMILES	Potency	activity change, negative = inhibition
O=C(c1ccc(N2CCCC2)c([N+](=O)[O-])c1)N1CCN(S(=O)(=O)c2ccccc2)CC1	inactive	
Cc1ccc2c(c1)N(CC(=O)N(Cc1ccc3c(c1)OCO3)CC1CCCO1)C(=O)C(C)O2 (stereo not given)	inconclusive: 29.1 µM [inhibitor, single point]	
Cc1c(C(O)CN2CCN(Cc3ccc4c(c3)OCO4)CC2)c2ccccc2n1C (stereo not given)	inconclusive: 14.6 µM [inhibitor, partial curve, poor fit]	
CC(C)N1CCC(N2CCN(Cc3ccc4nsnc4c3)CC2CCO)CC1 (stereo not given)	inconclusive: 6.31 µM [inhibitor, full curve, poor fit]	
COc1cc2c(cc1OC)CN(C(=O)c1nn(Cc3ccccc3)c(=O)c3ccccc13)CC2	inconclusive: 17.8 µM [inhibitor, single point]	
C=CCNc1ncnc2c1[nH]c1ccc(Cl)cc12	inconclusive: 35.5 µM [inhibitor, single point]	
CC(=O)c1cccc(N(C(=O)c2cnccn2)C(C(=O)NCc2ccccc2)c2ccco2)c1 (stereo not given)	inactive	
CN(C)/C=C1\N=C(c2ccc3c(c2)OCO3)OC1=O	inconclusive: 5.62 µM [activator, single point]	
COc1cc(NC(=S)N2CCN(C/C=C/c3ccccc3)CC2)cc(OC)c1	inconclusive: 0.708 µM [inhibitor, full curve, poor fit]	
CCn1c(CC(=O)Nc2ccccc2)nnc1SCC(=O)NC1=NCCS1	inconclusive: 1.41 µM [inhibitor, partial curve, poor fit]	
CC(C)CCNC(=O)NC(=O)CSc1nnc(COc2ccccc2Cl)o1	inconclusive: 20 µM [inhibitor, partial curve, poor fit]	
CSc1ccc(-c2nnn(Cc3ccc(Br)cc3)n2)cc1	inactive	
COc1ccc(C(=O)CSc2nnc(CNC(=O)c3ccc(OC)c(OC)c3)n2C)cc1	inactive	
CCOc1c(OC)ccc2c3c(c(=O)oc12)CCCC3	inactive	
Cc1nn(C)c(C)c1NS(=O)(=O)c1ccc(N2CCCC2=O)cc1	inconclusive: 4.47 µM [inhibitor, single point]	
CCOC(=O)c1cc(C(=O)Nc2ccc(C)c(F)c2)nn1C	inactive	
Oc1cccc(C(O)CNCc2ccc(OCc3ccc(Cl)cc3Cl)cc2)c1 (stereo not given)	inconclusive: 35.5 µM [inhibitor, partial curve, poor fit]	
CC(C(=O)NC1CCCCCC1)N(c1ccccc1)S(C)(=O)=O (stereo not given)	active: 8.2 µM	
CCCCCCNS(=O)(=O)c1ccc(NC(=O)C2CCCO2)cc1 (stereo not given)	inconclusive: 0.562 µM [activator, partial curve, poor fit]	
O=C(Nc1ccccc1Cc1ccccc1)c1ccc2c(c1)SC1=NS(=O)(=O)CCN12	inconclusive: 1.26 µM [inhibitor, single point]	
CCOC(=O)/C(C#N)=C(C)/C=C1\Sc2ccccc2N1CC	inconclusive: 35.5 µM [activator, single point]	
CCOCCCNC(=S)Nc1ccc2nc3n(c(=O)c2c1)CCCCC3	inconclusive: 3.16 µM [inhibitor, single point]	

A second format for part of the listing above.
COc1cc2c(cc1OC)CN(C(=O)c1nn(Cc3ccccc3)c(=O)c3ccccc13)CC2
  Potency: inconclusive: 17.8 µM [inhibitor, single point]
CN(C)/C=C1\N=C(c2ccc3c(c2)OCO3)OC1=O
  Potency: inconclusive: 5.62 µM [activator, single point]
O=C(Nc1ccccc1Cc1ccccc1)c1ccc2c(c1)SC1=NS(=O)(=O)CCN12
  Potency: inconclusive: 1.26 µM [inhibitor, single point]
